The values below come from PubChem BioAssay AID1508600 (Functional Genomics Laboratory (NCATS/FGL), 2020).

The whole screen tested about 53,000 sequences, of which about 3,700 (7%) were called active.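 Rule for the calls: active = gene knockdowns whose robust z-score for IL-1 alpha signal is at least 2 or at most -2, so actives lie on both sides; inactive = the rest.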 This is one part of the list.

The test is described as follows: Components of the Cytosolic LPS Sensing Pathway: Gene Identification via Genome-wide siRNA Screen.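 Note: robust z of the log signal after scaling to non-targeting control siRNA wells of the plate.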 The conditions noted are these: RAW264.7 macrophages, IL-1a HTRF, actives lie on both sides, screened at 100 nM (by protocol), cells primed 5 h with Pam3CSK4 first. The essentials:
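Knockdown: 100 nM siRNA, 48h, RAW264.7. Stimulation: Pam3CSK4 5 h, then LipidA via TransIT-TKO 24 h. Output: supernatant IL-1a HTRF, negative-control-normalized, log robust z-score; viability by CellTiter-Glo.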
As for GGAGCAGAAAGAAGAACUGTT against Bmp10, the z-score was inactive: -1.79.

On to GGCACAAGCCAAAGUAUUUTT against Igbp1, for which the z-score is inactive: -0.529.

Regarding GGGAAGUGACCUUCUACAGTT against Ms4a10, the z-score is inactive: 0.387. To GCAGAUUAGCUUCGUCAACTT against Top2a belongs inactive: -0.588. The value for GCUCAUCGACGGUCACUUUTT against Enoph1 was inactive: -0.00997; that for CGAACCUAAGGGUUACUAUTT against Tgfb3 was inactive: 0.592; that for GGAUGGUUUCCGUAAAGCUTT against Pacsin3 was inactive: -1.23. Consider GGCUUGAAGUUCAUUUAUUTT against Nkiras2, for which the z-score is inactive: -1.03.

As to GGUGCAAAUGGCAGAUACATT against Olfr919, the z-score was inactive: -0.873. The value for GCAUUAUGGGACUAGAAGGTT against Scfd1 was inactive: 1.92; that for CCUGAUAUAUGACUUUGGCTT against Ntf5 was inactive: -0.734. To GCACAGCUAUCAAUGAGCUTT against Olfr1410 belongs inactive: -1.43; to GCUCACAAGCAAGUGCAACTT against Olfr1352, inactive: 0.763. To GGUGUAGAAUCUCAAUCCATT against Samd12 belongs inactive: 0.91.

Regarding GCAUUACUUGAGCAAAACATT against Zfp654, the z-score was inactive: -0.854. To CGACUUGACUGGUCUUAAATT against Cdk8 belongs inactive: -0.289. Regarding GCAUCACGUAUGUGAUUUGTT against Dmrtc1a, the z-score is inactive: -0.569. To GCUUGGUGGGUUUGUUGAUTT against Slc28a1 belongs inactive: -0.113. To CAUGAACGUGGGUAAAACGTT against Rab20 belongs inactive: -0.878; to GCCAUUGUCACAGUCUGAATT against Phf21a, inactive: 0.627; to GGAUCUCCCUCUAAAUAUUTT against Hsp90aa1, inactive: -0.138. For CCAUAUUCGAGAUACUCUGTT against Dnm3, the z-score was inactive: -0.53. The value for GCGAGAGUCACAAAGUGCATT against Rcc1l was inactive: 1.35. Consider GGAGGUCAAUGACUUCGCATT against Trip10, for which the z-score was inactive: 0.0947. To GGGUAUAAUCCACAUCCAATT against Tyms belongs inactive: 1.46; to GGUGACCCAGUUGCUGAAUTT against Ahnak, inactive: 1.02.

For the sequence GGCAGCAUGAUUAUUUCAATT against Gm4861, the z-score is inactive: -0.0747.

On to CCCUGAUUCCAAGUCAUCATT against Lect2, for which the z-score was inactive: -0.617.

In the case of GCCCUUGACUUCAAUACCCTT against Shc1, the z-score is inactive: 0.913. The value for GGAAAACGAGUCAAACUCATT against Lnx2 was active: 3.4; that for CGGACUCAUUCAGCAACCUTT against Ttc39a was inactive: -1.19. The value for GCGUGCAUAUAUCCAAUGCTT against Tardbp was inactive: 1.36; that for CCUUGAGUGAAAGAAUUGATT against Tmprss11d was inactive: -0.609; that for GCGAUACCGUUCUCUGUACTT against Lexm was inactive: -0.749.

In the case of GGCUUGAGCUGGGAUACAATT against Hnrnpdl, the z-score is inactive: 1. The value for GGAGAUAGGAUUGCUUGCATT against Mthfd1l was active: -2.3. To GGUCACAGUUGACAAAUGGTT against Cdc16 belongs inactive: -0.282. Take GCAUCAAAAUCGGUUUCUGTT against Lkaaear1: the z-score was inactive: 0.759.

In the case of GCUGUAUGCCUGUUUAGUGTT against Prr15, the z-score was inactive: -0.807. The value for GCUUGGUGUUAAUUUGUUGTT against Btf3l4 was inactive: 0.549; that for GGAAAAUUGGACCAAUUUCTT against Ric3 was inactive: -0.339; that for GCCUGCAUUGCAAAUGAAATT against Krtap13-1 was inactive: -0.257. To GCAGACUCUGUAUACCAUGTT against Rfx4 belongs inactive: 0.21. To GGGCAUUCAAAGAUGACUATT against Mrpl39 belongs inactive: 1.22; to GCAUGUCAUACCAGCUAGUTT against Nkd2, inactive: -1.5. As to GGCAGUUGAUUCCUUUAAATT against Baz1a, the z-score was inactive: 0.0425. The value for CCUAGUUAUCAGAAGAAAATT against Pax7 was inactive: 0.738. The value for GGAACAGCAAAUGUUCUUUTT against Rab38 was inactive: 1.16; that for GGAAAACAACGAAUUGCUCTT against Uri1 was inactive: 0.791. The value for CCCAACCAGACCAAUCCACTT against Enam was inactive: -0.893. For CCGUAUCAACCUCAUCUAUTT against Mob3c, the z-score was inactive: -0.00254.

For the sequence GGAACAGGAAUAUGAAAGATT against Olfr836, the z-score is inactive: -0.903. To CCCUUUAUAAGGAAAUGUGTT against Ces2b belongs inactive: -0.728; to GGUUACUCCUUUUUAUGUATT against Bex1, inactive: -1.1. In the case of GGAGCUACUGAGAACAUAATT against Hoxd4, the z-score is inactive: -1.25. The value for GGAAACCAAUAGGAAGUAUTT against Ubqln1 was inactive: -0.659; that for GGGCUCUUUCUACCAAUGUTT against Calhm6 was inactive: 1.23. To “GGCCUGUUUUGAAGUAGAATT against B630019K06Rik” belongs inactive: 0.352; to CGAUAGCGAAUUUACAGUUTT against Prdx6, inactive: 1.89. The value for CCAGAUAUCUGGGUACUUUTT against Zfp353-ps was inactive: -1.85; that for GGGACUUACAAGCAGAUUCTT against Casp9 was inactive: -0.399.

On to “GCUCACAAAGCAAAGACAATT against 3110009E18Rik”, for which the z-score was inactive: 0.636. Consider GGAAAAGACAGUCUCUGAATT against Ubxn11, for which the z-score is inactive: -0.00536. To GGAGAGCUAGCCUUAAUAATT against Bspry belongs active: 4.21; to GCUCAGCUACAAUAUGUUCTT against BC051019, inactive: 0.14; to GACCUUCGACACCGACAAATT against Rtl8c, active: 3.29.

Turning to GGAAAACAACAUGAUCGUGTT against Nadk, the z-score is inactive: -0.137.

With GGAUGUACCCUACUUGCUATT against B3gnt8, the z-score was inactive: 0.774. To CCUGAAGAUUUUAUGGACGTT against Gpatch1 belongs inactive: 0.523.

In the case of CGGACUCUGUGUUCUUAGATT against Alg3, the z-score was active: 2.68. The value for GCUCUAUCACUCGUUGAAGTT against Trim27 was inactive: 0.542. The value for GCUCAUUGCCAAGAUGACATT against Tcea3 was inactive: -0.801; that for GGUGCCCACCAAUCAACAUTT against Slc9a3r1 was inactive: -0.667; that for GGCCAUCUCUUCUACUGUATT against Glt28d2 was inactive: 0.0935. To GGACAAUGUUGAAUCCUGUTT against Rrp15 belongs inactive: -0.155; to GGCUGUUUUUACACUUCGCTT against Olfr1395, inactive: -0.0372.

Turning to GGGUCAUAAAGGAUUUCAUTT against Ppih, the z-score is inactive: 0.704. Regarding GGAGCUUCAGCAUGAAAACTT against Ulk2, the z-score was inactive: 0.918. For CCAUUUGGGACUAUAGACGTT against Celf3, the z-score is inactive: -0.0104.

Take GCAAGACUGACCUAGAUUATT against Rasal2: the z-score is inactive: -1.48. The value for GCAGAGAUCCCUUCUACAATT against Rnf32 was inactive: 0.741. The value for GGUUGGUACAUUGUGACCUTT against Rer1 was inactive: -1; that for GGGAUUGGUGAAGAAAAAATT against Chmp1a was inactive: -1.07.

On to GGAGAUGCCAGAGGUCAAATT against Gzmk, for which the z-score is active: 2.08. The value for GGCUUAUUCCCUAAUUAAATT against Elobl was inactive: -0.521; that for GGAGGACUGUCCAAAAGAATT against Tnfrsf18 was inactive: 1.04; that for CCACUAGUUAGGUACUAACTT against Ifitm6 was inactive: 1.02. To CGAUGAUAAAACGAACAAGTT against Plppr5 belongs active: 2.78. To GAAAUGCAACGGCCACUGCTT against Spp1 belongs inactive: -1.38; to “GGAUUUCAACCUUCUUGUUTT against 2310057N15Rik”, inactive: -0.448; to GGUAUGAGCUGAUCAAGUATT against Slc27a2, inactive: 1.67. On to GAGGUUCAGUUUUGGCUGGTT against Olfr558, for which the z-score was inactive: 0.417.

Consider GCUAAAAACAGCUAAAGAATT against Adam4, for which the z-score was inactive: -0.116. The value for GGAAGGAAGAUGAAAGCCATT against Hspb3 was inactive: 0.434; that for GGGUGGAGUAAAGCUCUAUTT against Olfr1223 was inactive: -0.417.

In the case of GGGAACUGCACAAUACAAATT against Ccdc122, the z-score was inactive: 1.91.

Regarding CGCAGACAAGAAAUGAAGGTT against Hnf4aos, the z-score is inactive: -1.98. To GCUAAUCAAGACCGAGCAUTT against Vps33b belongs inactive: 0.306; to GGAUGUCCAGAUGUAAAUATT against Vps16, inactive: -0.974.

For the sequence GGCAGUUCAAGGCAAUAAATT against Olfm1, the z-score is inactive: -1.4. The value for GCCGCUUGAAGACCAGAAATT against Trp53i11 was inactive: 1.03; that for GGUCUAUGGCCCAUAUGAATT against Cspg4 was inactive: -1.31; that for GCUUAGAAAUCUUAUCCCATT against Hnrnpc was inactive: -1.19.

As to GCAUAGCAGGAAGGCCUUGTT against Htr6, the z-score is inactive: 0.183. To GCUACCAGGAUAGCGAAACTT against P2rx2 belongs inactive: 0.826; to GGAAAAAUUUAGACAGCACTT against Csrp2, inactive: 0.132.
